Laboratory results from article PMC7819943, “Rice protein-binding microarrays: a tool to detect cis-acting elements near promoter regions in rice”.
The other results are listed elsewhere or left out.

Molecular target: T1, OsSMF1 (Oryza sativa, UniProt Q6ZLB0 1-436)
T1 sequence: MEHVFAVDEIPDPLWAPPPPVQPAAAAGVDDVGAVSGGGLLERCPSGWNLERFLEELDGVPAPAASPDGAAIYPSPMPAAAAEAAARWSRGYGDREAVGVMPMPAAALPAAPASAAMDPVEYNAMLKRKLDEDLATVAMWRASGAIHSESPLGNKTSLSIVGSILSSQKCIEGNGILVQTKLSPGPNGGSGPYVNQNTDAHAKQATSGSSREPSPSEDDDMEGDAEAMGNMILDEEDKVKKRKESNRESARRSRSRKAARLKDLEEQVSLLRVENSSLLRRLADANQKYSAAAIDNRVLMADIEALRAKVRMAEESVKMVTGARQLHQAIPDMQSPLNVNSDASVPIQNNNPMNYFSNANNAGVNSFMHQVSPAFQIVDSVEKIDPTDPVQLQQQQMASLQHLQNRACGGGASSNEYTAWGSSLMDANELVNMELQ
Experiment: protein-binding microarray (RPBM); PBS, 2% BSA, 51.3 ng/ul salmon testes DNA, 50 uM zinc acetate, 200 nM TF, 25 C, 1 h; high values mean tight binding
Details: protein: recombinant; tags: N-terminal polyhistidine and DsRed monomer fusion (pET32a); chain copies: 2; label: CyDye5-dUTP incorporated in the synthesized complementary strand; 3' TTTTT single-stranded linker to array surface; dsDNA, one strand shown
Summary of the method: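 Binding signal is defined as the fluorescence intensity of each feature in arbitrary units, read on an Axon 4000B scanner. Transcription factors with N-terminal polyhistidine and DsRed fusions came from E. coli BL21-CodonPlus and were purified on Ni–NTA. They were incubated at 200 nM for 1 h at 25 °C on a custom Agilent array that had been made double-stranded with Cy5-dUTP, with 50 µM zinc acetate present, and the array was washed.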

**Q.** How did the binding signal turn out when “CCATGTAGGCATCTCCATCACTTGCCTGACACACCAAGCGCGGAGTCACCTAGTGCAG” was run?
**A.** The binding signal was 3300 fluorescence intensity (a.u.).

**Q.** For “TATTATTATACTGAATAGGGCAACAGGCCCATGGATGAGCCGGAGTCACCTAGTGCAG”, which binding signal is on record?
**A.** The binding signal was 3220 fluorescence intensity (a.u.).

**Q.** How did the binding signal turn out when “GAGCTTGGCCTTGGCCACCGCCAGATGACGGAGGCAGCGCCGGAGTCACCTAGTGCAG” was run?
**A.** The binding signal was 4350 fluorescence intensity (a.u.).

**Q.** For “GCCTGGCCCAAATTGCGGGAGCTTACGCATGTTGCCCAGGCGGAGTCACCTAGTGCAG”, which binding signal is on record?
**A.** The binding signal was 3550 fluorescence intensity (a.u.).

**Q.** Which binding signal does the source give for “CTAAAACCACATATAAGGAGTGTCCTGTAGCAAAATTTCCCGGAGTCACCTAGTGCAG” here?
**A.** Its binding signal is 4200 fluorescence intensity (a.u.).

**Q.** How did the binding signal turn out when “GGCGGCGGCGGAGAAGGAGAGGCCGCCCGCCGCGTGGCGCCGGAGTCACCTAGTGCAG” was run?
**A.** The binding signal was 6420 fluorescence intensity (a.u.).

**Q.** With “GATTCGGTCGGGTACGCGACGTGACGCGGTCCGGCTGCACCGGAGTCACCTAGTGCAG” as the sequence, how does the binding signal read?
**A.** The binding signal was 5090 fluorescence intensity (a.u.).

**Q.** For “GTTCACACAAATAATTGTTTGTGTTGGTATACTAAGGGCCCGGAGTCACCTAGTGCAG”, which binding signal is on record?
**A.** Its binding signal is 24300 fluorescence intensity (a.u.).

**Q.** With “TCCGGGTGACGAGGCCAAACCTGGGCCTCAACCCCATTTTCGGAGTCACCTAGTGCAG” as the sequence, how does the binding signal read?
**A.** The binding signal was 3250 fluorescence intensity (a.u.).

**Q.** How did the binding signal turn out when “CTAGCTCGTTACAAACAGTTGGTATCCCGACCATGCCACGCGGAGTCACCTAGTGCAG” was run?
**A.** Its binding signal is 3390 fluorescence intensity (a.u.).

**Q.** For “TATTGTTGTGACTTCCCTTGTCGCCAATGGCTTACTCATTCGGAGTCACCTAGTGCAG”, which binding signal is on record?
**A.** Its binding signal is 3270 fluorescence intensity (a.u.).

**Q.** Which binding signal does the source give for “TTGAAAAGAAAGTTTTCTATAAGGGACCGAAGCTTTCACGCGGAGTCACCTAGTGCAG” here?
**A.** Its binding signal is 21600 fluorescence intensity (a.u.).

**Q.** With “GTGATCCGGAAGAAAATGATCTGACACATATATTAAATATCGGAGTCACCTAGTGCAG” as the sequence, how does the binding signal read?
**A.** The binding signal was 3250 fluorescence intensity (a.u.).

**Q.** How did the binding signal turn out when “GCAGCAGGTGGCGCCTCTAATTCCTCCTCCTCGCGCCCTACGGAGTCACCTAGTGCAG” was run?
**A.** The binding signal was 3600 fluorescence intensity (a.u.).

**Q.** “AGATCAAATCAACTCCATGAATTATGAATCATCATTCATGCGGAGTCACCTAGTGCAG” was tested. Which binding signal did it give?
**A.** The binding signal was 3780 fluorescence intensity (a.u.).

**Q.** Which binding signal does the source give for “GGGCAACCATGTAGACAACATCGCGTGGTTGATTGGCGGCCGGAGTCACCTAGTGCAG” here?
**A.** The binding signal was 3150 fluorescence intensity (a.u.).

**Q.** With “CCTTTCTTCTTCCGCCTCTCCTCCATGGCGTGACCTGACTCGGAGTCACCTAGTGCAG” as the sequence, how does the binding signal read?
**A.** Its binding signal is 4320 fluorescence intensity (a.u.).

**Q.** How did the binding signal turn out when “TTCCGCCCACAGCCGCCGGAGCCACCTCCCGCTCCTCTCCCGGAGTCACCTAGTGCAG” was run?
**A.** Its binding signal is 3800 fluorescence intensity (a.u.).

**Q.** For “GCGCGCGCGCACGGCGCCATCAATCGATTCTCACATCCATCGGAGTCACCTAGTGCAG”, which binding signal is on record?
**A.** Its binding signal is 7720 fluorescence intensity (a.u.).

**Q.** For “TTACATCATATAATATATATGTGCCACGAGTGCCCTTGGTCGGAGTCACCTAGTGCAG”, which binding signal is on record?
**A.** The binding signal was 4240 fluorescence intensity (a.u.).

**Q.** How did the binding signal turn out when “TTCCAACAATGTGCTCTCATCCAGCACGTCAGCTCAGGCGCGGAGTCACCTAGTGCAG” was run?
**A.** The binding signal was 4700 fluorescence intensity (a.u.).

**Q.** Which binding signal does the source give for “CTGTGGTGGGGCCAGGGGAGCTGATCGGGCTCGGACGGGACGGAGTCACCTAGTGCAG” here?
**A.** Its binding signal is 3370 fluorescence intensity (a.u.).

**Q.** Which binding signal does the source give for “TCTCTCTCATCCTTCCAATCGATCTCCTCGACCTGCTATGCGGAGTCACCTAGTGCAG” here?
**A.** The binding signal was 3440 fluorescence intensity (a.u.).

**Q.** “ACACACTGCAGACTTGCAGTTGTTGACTCATGTAACTTTACGGAGTCACCTAGTGCAG” was tested. Which binding signal did it give?
**A.** The binding signal was 7080 fluorescence intensity (a.u.).

**Q.** With “ATCATCCAAGGTGACGCATCGGCATCGCCTCTTCCAATCCCGGAGTCACCTAGTGCAG” as the sequence, how does the binding signal read?
**A.** The binding signal was 5880 fluorescence intensity (a.u.).

**Q.** Which binding signal does the source give for “GGTAGGCTCCATCCGCGTAGGCATATGATTCTTGGATGATCGGAGTCACCTAGTGCAG” here?
**A.** Its binding signal is 4100 fluorescence intensity (a.u.).

**Q.** With “GATCCAGCTTCATTTCTCAGTCTGACACTGGGCCCCACCTCGGAGTCACCTAGTGCAG” as the sequence, how does the binding signal read?
**A.** The binding signal was 5180 fluorescence intensity (a.u.).

**Q.** With “CATGTAAACCATCGTCGTGGTCACGTGATCTCGTCGGTCACGGAGTCACCTAGTGCAG” as the sequence, how does the binding signal read?
**A.** Its binding signal is 3430 fluorescence intensity (a.u.).

**Q.** With “GGAGGAACGACGGCGACGGCGACGTGGACGTCGACGAGAGCGGAGTCACCTAGTGCAG” as the sequence, how does the binding signal read?
**A.** The binding signal was 4360 fluorescence intensity (a.u.).

**Q.** “CGATGACCACCACGGCGGCTGGTGACGACGACCACGGCGACGGAGTCACCTAGTGCAG” was tested. Which binding signal did it give?
**A.** Its binding signal is 5200 fluorescence intensity (a.u.).

**Q.** Which binding signal does the source give for “TCAAAGGGTTTCATAAATTTTATGTATATTTTACAAGATTCGGAGTCACCTAGTGCAG” here?
**A.** The binding signal was 5540 fluorescence intensity (a.u.).

**Q.** With “CGTGTGCAGCCGCCAGTTTGCTACTTTGCAAACGCGTCAGCGGAGTCACCTAGTGCAG” as the sequence, how does the binding signal read?
**A.** Its binding signal is 4470 fluorescence intensity (a.u.).

**Q.** How did the binding signal turn out when “AGATAGAACAACTGCAGCTAGCGCTTCTATCTGAAACTCTCGGAGTCACCTAGTGCAG” was run?
**A.** The binding signal was 37700 fluorescence intensity (a.u.).

**Q.** With “AGTTTTGTAAGTAGTCTATGTTTAATATTCCAAATTAATACGGAGTCACCTAGTGCAG” as the sequence, how does the binding signal read?
**A.** Its binding signal is 3860 fluorescence intensity (a.u.).

**Q.** With “CTTCTTTCACTTGCAGGGTAACTATACCTCCACGTCAGGGCGGAGTCACCTAGTGCAG” as the sequence, how does the binding signal read?
**A.** Its binding signal is 19800 fluorescence intensity (a.u.).

**Q.** “GTGAGAGGGCCTCTGCACCGTCGGATCGCGATCGGACGGCCGGAGTCACCTAGTGCAG” was tested. Which binding signal did it give?
**A.** Its binding signal is 34500 fluorescence intensity (a.u.).

**Q.** With “GAGTTGTGCAGCCAAGTCAGCTGCACATGGGGAACAAGCGCGGAGTCACCTAGTGCAG” as the sequence, how does the binding signal read?
**A.** Its binding signal is 6520 fluorescence intensity (a.u.).

**Q.** How did the binding signal turn out when “GATAGCCACAATCTCGCGTGTGTTCAGAGTGTTCTAGCTACGGAGTCACCTAGTGCAG” was run?
**A.** Its binding signal is 3380 fluorescence intensity (a.u.).

**Q.** “TTGCATCAGGCCCTCTTCAATGATTTAAACAAACAATGGACGGAGTCACCTAGTGCAG” was tested. Which binding signal did it give?
**A.** The binding signal was 52300 fluorescence intensity (a.u.).

**Q.** “GGCAGCGACAAGATCACAAAACACTGTAGAAAGGCTGCAGCGGAGTCACCTAGTGCAG” was tested. Which binding signal did it give?
**A.** The binding signal was 3180 fluorescence intensity (a.u.).

**Q.** With “CGGCCCAAAGTTTATCTTCTTTCCTTCTGACTTCTTTGTGCGGAGTCACCTAGTGCAG” as the sequence, how does the binding signal read?
**A.** Its binding signal is 3190 fluorescence intensity (a.u.).

**Q.** With “GCCAATCCGCCGCCGCCACCTCACCCAACCAATCCGCCGCCGGAGTCACCTAGTGCAG” as the sequence, how does the binding signal read?
**A.** Its binding signal is 8690 fluorescence intensity (a.u.).
